Experimental data: patent US8716260B2, “Use of S-adenosylmethionine, vitamin E, and vitamin C for the treatment of oxidative liver injury” (University of Manitoba, priority 2005, dated 2014)

Test system: Male Sprague-Dawley rats
Assay: Basal blood glucose level and mean arterial blood pressure
Assay type: in vivo, rat

CN1[C@@H]2CC[C@H]1C[C@@H](OC(=O)C(CO)c1ccccc1)C2 (some centres unmarked) [Atropine, atropine]
basal glucose level (normal rats, post atropine 0.1 mg.kg^−1): 110.9±2.2 mg %

CC(=N)S [TAA, thioacetamide]
basal glucose level (TAA 200 rats): 96.5±3.0 mg %
